# Hit rate of the full screen: of about 300,000 compounds, about 3,700 (1.2%) were called active. Inconclusive means that the source gave no clear call. Such entries were picked first, then a sample of the others. The call rests on the fitted dose curve; tested in HEK293 cells. Potencies beside an inconclusive call are fits to weak or partial responses and may not hold up.
# Experiment: qHTS for Inhibitors of binding or entry into cells for Lassa Virus; further: nearly all actives have a fitted effect of over 50% in size
# Settings: Lassa virus pseudotype entry inhibition, cell reporter; series mostly up to 37.9 µM
# Potency means the concentration at half of the fitted maximal effect.
row,Compound,Potency
1,CC(C)NC(=O)N1CCC(n2nccc2NC(=O)CCOc2ccccc2)CC1,inactive
2,N=c1ccn(Cc2ccccc2Cl)cc1,inactive
3,O=C1COc2ccc(C(=O)COC(=O)Cc3ccccc3F)cc2N1,"inconclusive: 0.562 µM [inhibitor, single point]"
4,Cn1c(SCc2ccccc2)nnc1C1CCCNC1 (stereo not drawn),"inconclusive: 35.5 µM [activator, single point]"
5,COc1ccc(NC(=O)Cn2ccn(-c3ccc(F)c(F)c3)c(=O)c2=O)cc1Cl,"inconclusive: 3.98 µM [inhibitor, full curve]"
6,CC1=NNC(=O)/C1=C\c1cn(-c2ccccc2)nc1-c1ccc(Cl)cc1,"inconclusive: 15.8 µM [inhibitor, partial curve, poor fit]"
7,O=C(Nn1c(SCc2ccccc2F)nc2ccsc2c1=O)c1ccccc1,"inconclusive: 2.59 µM [activator, partial curve, poor fit]"
8,Cc1oc2ccc(OCc3ccccc3F)cc2c1C(=O)O,"inconclusive: 0.0041 µM [activator, full curve, poor fit]"
9,Cc1ccc(/C=N/NC(=O)CN(Cc2ccccc2)S(=O)(=O)c2ccc3c(c2)OCCO3)cc1,"inconclusive: 10 µM [inhibitor, partial curve, poor fit]"
10,COC(=O)c1sc2nc(-c3ccccc3)nc(N3CCN(C)CC3)c2c1C,"inconclusive: 3.55 µM [inhibitor, full curve, poor fit]"
11,COc1ccc(C2(CCN=Cc3ccc(N(C)C)cc3)CCOC(C)(C)C2)cc1 (stereo not drawn),"inconclusive: 17.8 µM [activator, single point]"
12,Cc1cc(NC(=O)c2ccc3c(c2)OCCO3)ccc1NC(=O)c1ccco1,"inconclusive: 25.1 µM [inhibitor, single point]"
13,O=C(Nc1nc(-c2ccc3c(c2)OCO3)cs1)c1ccncc1,"inconclusive: 35.5 µM [inhibitor, single point]"
14,CC(=O)N1CCCc2cc(S(=O)(=O)N(C)CC(=O)Nc3ccc(C(C)C)cc3)ccc21,inactive
15,COCC(=O)Nc1nnc(Cc2ccc(OC)cc2)s1,"inconclusive: 35.5 µM [inhibitor, single point]"
16,COc1ccccc1CCN1CCCC(CN(C)CC(C)(C)CO)C1 (stereo not drawn),"inconclusive: 7.94 µM [inhibitor, partial curve, poor fit]"
17,CC(C)c1ccc(/C=N/Nc2cc(N3CCOCC3)nc(N3CCOCC3)n2)cc1,"inconclusive: 2 µM [inhibitor, partial curve, poor fit]"
18,CC1(c2ccccc2)NC(=O)N(CC(=O)N(c2ccccc2)C2CCS(=O)(=O)C2)C1=O (stereo not drawn),"inconclusive: 0.501 µM [inhibitor, partial curve, poor fit]"
19,Clc1cccc2sc(N3CCOCC3)nc12,"inconclusive: 29.1 µM [activator, single point]"
20,COC(=O)c1ccccc1NS(=O)(=O)c1cc2c3c(c1)CC(=O)N3CCC2,inactive
21,Cn1c(NN=O)nc2ccccc21,"inconclusive: 8.91 µM [inhibitor, partial curve, poor fit]"
22,CCOc1ccc(Oc2ccc(Cl)cc2NC(=O)C2=COCCO2)cc1,"inconclusive: 12.6 µM [inhibitor, partial curve, poor fit]"
23,COC(=O)CSc1nc(N)nc(C)c1Cl,"inconclusive: 7.08 µM [activator, partial curve, poor fit]"

# Molecules from the list above that have an aryl methoxy group, in the order listed:
row,Compound,Potency
5,COc1ccc(NC(=O)Cn2ccn(-c3ccc(F)c(F)c3)c(=O)c2=O)cc1Cl,"inconclusive: 3.98 µM [inhibitor, full curve]"
11,COc1ccc(C2(CCN=Cc3ccc(N(C)C)cc3)CCOC(C)(C)C2)cc1 (stereo not drawn),"inconclusive: 17.8 µM [activator, single point]"
15,COCC(=O)Nc1nnc(Cc2ccc(OC)cc2)s1,"inconclusive: 35.5 µM [inhibitor, single point]"
16,COc1ccccc1CCN1CCCC(CN(C)CC(C)(C)CO)C1 (stereo not drawn),"inconclusive: 7.94 µM [inhibitor, partial curve, poor fit]"

# (further entries)

row,Compound,Potency
1,CCc1c(O)nc(SCC(=O)N(CC)CC)[nH]c1=O,inactive
2,Clc1ccccc1C1=CC(c2ccco2)n2nnnc2N1 (stereo not drawn),inactive
3,O=C(Nc1ccc(-c2nc3c(ccc4ccccc43)o2)cc1)c1ccco1,"inconclusive: 0.326 µM [activator, partial curve, poor fit]"
4,COc1ccc2oc(=Nc3ccccc3)c(-c3nc4ccccc4[nH]3)cc2c1,"inconclusive: 11.2 µM [inhibitor, single point]"
5,O=C(N/N=C/c1ccccn1)c1cc(-c2ccc(Cl)cc2)nc2ccccc12,"inconclusive: 17.8 µM [inhibitor, single point]"
6,Cc1cccc(C)c1OCCn1c(CCNC(=O)C2CCCCC2)nc2ccccc21,inactive
7,COc1ccc(C(=O)Oc2c(Sc3ccccc3)c(C)nn2-c2ccccc2)c(OC)c1,"inconclusive: 7.94 µM [inhibitor, partial curve, poor fit]"
8,O=C(Nc1nnc(C2=COCCO2)o1)c1ccc(Cl)cc1,inactive
9,COc1ccc(OC)c(NC(=O)c2cccc(S(=O)(=O)N3CCN(C(C)=O)CC3)c2)c1,"inconclusive: 3.55 µM [inhibitor, single point]"
10,O=C(Nc1cccn2ncnc12)c1ccc(Cl)cc1,"inconclusive: 6.51 µM [activator, full curve, poor fit]"
11,Cc1nc(-c2ccccc2)nc2[nH]ccc(=O)c12,inactive
12,O=C(CSc1nc(-c2ccccc2)c(-c2ccccc2)o1)NCCCO,"inconclusive: 15.8 µM [inhibitor, partial curve, poor fit]"
13,Cc1ccc(NC(=O)c2ccc(Cn3cc(Br)cn3)o2)cc1,inactive
14,COc1ccc(C)c2sc(NC(=O)c3ccc(S(=O)(=O)N4CCOCC4)cc3)nc12,"inconclusive: 3.55 µM [activator, single point]"
15,CCN(Cc1ccccc1)C(c1ccc(C)cc1)c1nnnn1C(C)(C)CC (stereo not drawn),"inconclusive: 35.5 µM [inhibitor, single point]"
16,COc1ccc(NC(=O)c2cc([N+](=O)[O-])ccc2NC(=O)CNCc2ccccn2)c(OC)c1,"inconclusive: 14.1 µM [inhibitor, partial curve, poor fit]"
17,CCSC1=NCCN1C(=O)Cc1ccc(-c2ccccc2)cc1,inactive
18,O=C(NCCN1CCOCC1)c1ccc(-c2ccccc2)cc1,inactive
19,C=CCN(c1ccccc1)S(=O)(=O)c1cccc(C(=O)N(CC)CC(=O)Nc2c(F)cccc2F)c1,active: 17.8 µM
20,CCOC(=O)CN(C(=O)CSc1nnc(-c2cccc(OC)c2)o1)c1ccc(F)cc1,"inconclusive: 3.66 µM [inhibitor, full curve]"
21,O=C(Nc1ccc(NC(=O)C23CC4CC(CC(C4)C2)C3)cn1)c1ccco1,"inconclusive: 2.24 µM [activator, partial curve, poor fit]"
22,COc1ccc(NC(=S)NCc2ccccc2Cl)c(OC)c1,"inconclusive: 6.31 µM [inhibitor, single point]"
23,COc1ccccc1CNS(=O)(=O)c1ccc2c(c1)N(C(C)=O)CC(C)S2 (stereo not drawn),"inconclusive: 8.91 µM [inhibitor, partial curve, poor fit]"

row,Compound,Potency
1,O=C(Nc1nc(-c2ccc(Oc3ccccc3)cc2)cs1)C1=COCCO1,"inconclusive: 12.6 µM [inhibitor, partial curve, poor fit]"
2,COc1ccc(C(=O)C2CCCN(Cc3cccn3-c3nccs3)C2)cc1F (stereo not drawn),"inconclusive: 22.4 µM [inhibitor, single point]"
3,CC(C)(C)c1cc(CSC(=S)NC2CCS(=O)(=O)C2)c(Br)c(C(C)(C)C)c1 (stereo not drawn),"inconclusive: 35.5 µM [inhibitor, single point]"
4,Cc1ccc(-c2noc(C3CCCN(C(=O)c4ccccc4)C3)n2)o1 (stereo not drawn),"inconclusive: 0.13 µM [activator, full curve, poor fit]"
5,Cc1ccc(-n2nc(C)c3c(C(=O)Nc4ccccc4C(F)(F)F)cc(C)nc32)cc1,inactive
6,Cc1ccccc1-c1nc2ccccc2c(=O)n1C1CCS(=O)(=O)C1 (stereo not drawn),inactive
7,Cc1ccc2c(c1)C(c1ccccc1)N(C(=O)COc1ccc(Cl)cc1Cl)CC(=O)N2 (stereo not drawn),"inconclusive: 12.6 µM [inhibitor, single point]"
8,CC1=C(C(=O)Nc2ccccc2)C(c2ccccn2)n2nc(SCc3ccccc3)nc2N1 (stereo not drawn),"inconclusive: 1.12 µM [activator, partial curve, poor fit]"
9,O=C1CCCC(=O)C1C1c2ccccc2CCN1C(=O)CCl (stereo not drawn),inactive
10,Cc1cc(NC(=O)c2ccc3c(c2)OCCO3)no1,"inconclusive: 35.5 µM [inhibitor, partial curve, poor fit]"
11,Cc1c(Cl)ccc2sc(N3CCN(C(=O)CCS(=O)(=O)c4ccc(F)cc4)CC3)nc12,"inconclusive: 11.2 µM [inhibitor, partial curve, poor fit]"
12,C=CCn1c(-c2ccc(C)cc2)nc2ccccc21,inactive
13,COc1ccc(-c2nc3ccccc3n2Cc2ccccc2)cc1,inactive
14,COc1ccc(Nc2nc(N(C)c3ccccc3)nc(N)c2[N+](=O)[O-])cc1,inactive
15,O=C1c2cc(Br)ccc2O[C@@H](c2ccc3c(c2)OCO3)[C@@H]1O,"inconclusive: 0.473 µM [activator, single point]"
16,COc1ccc(OC)c(/C=C2\SC(=S)N(Cc3cccnc3)C2=O)c1,"inconclusive: 35.5 µM [inhibitor, single point]"
17,S=C(N/N=C/c1cccc2ccccc12)Nc1cccc(Cl)c1,"inconclusive: 2.24 µM [inhibitor, full curve]"
18,Cc1ccccc1NC(=O)c1ccc(CN2CCC(Cc3ccccc3)CC2)cc1,"inconclusive: 31.6 µM [inhibitor, partial curve, poor fit]"
19,O=C(CNC(=O)c1cccs1)OCC(=O)c1ccc(Br)cc1,inactive
20,CCCC(=O)Nc1ccc(C)c(O)c1,"inconclusive: 15.8 µM [activator, partial curve, poor fit]"
21,COC(=O)c1sc(NC(=O)C2CCCO2)c(C(=O)OC)c1C (stereo not drawn),inactive
22,CC(=O)N1N=C(c2ccccc2)OC1c1cccnc1 (stereo not drawn),"inconclusive: 5.62 µM [inhibitor, single point]"

# Random excerpt: two compounds from above
row,Compound,Potency
17,S=C(N/N=C/c1cccc2ccccc12)Nc1cccc(Cl)c1,"inconclusive: 2.24 µM [inhibitor, full curve]"
15,O=C1c2cc(Br)ccc2O[C@@H](c2ccc3c(c2)OCO3)[C@@H]1O,"inconclusive: 0.473 µM [activator, single point]"

# From PubChem BioAssay AID540256 (National Center for Advancing Translational Sciences (NCATS), 2011)
